In PMC6826419:

Assays:
[1] = molecular target: T1, P120 catenin isoform p120-1 (mouse (endogenous in 4T1)) (UniProt P30999); test: co-IP; confluent 4T1 (Figure 2B) and NMuMG (Figure S2C) cells lysed in 125 mM NaCl, 20 mM Hepes pH 7.4, 1% Nonidet P40 substitute; precipitated with p120 isoform-specific antibodies (6H11 mAb for p120-1, anti-p120-3 pAb) and Sepharose-Protein G at 4 °C; Western blot
T1 sequence: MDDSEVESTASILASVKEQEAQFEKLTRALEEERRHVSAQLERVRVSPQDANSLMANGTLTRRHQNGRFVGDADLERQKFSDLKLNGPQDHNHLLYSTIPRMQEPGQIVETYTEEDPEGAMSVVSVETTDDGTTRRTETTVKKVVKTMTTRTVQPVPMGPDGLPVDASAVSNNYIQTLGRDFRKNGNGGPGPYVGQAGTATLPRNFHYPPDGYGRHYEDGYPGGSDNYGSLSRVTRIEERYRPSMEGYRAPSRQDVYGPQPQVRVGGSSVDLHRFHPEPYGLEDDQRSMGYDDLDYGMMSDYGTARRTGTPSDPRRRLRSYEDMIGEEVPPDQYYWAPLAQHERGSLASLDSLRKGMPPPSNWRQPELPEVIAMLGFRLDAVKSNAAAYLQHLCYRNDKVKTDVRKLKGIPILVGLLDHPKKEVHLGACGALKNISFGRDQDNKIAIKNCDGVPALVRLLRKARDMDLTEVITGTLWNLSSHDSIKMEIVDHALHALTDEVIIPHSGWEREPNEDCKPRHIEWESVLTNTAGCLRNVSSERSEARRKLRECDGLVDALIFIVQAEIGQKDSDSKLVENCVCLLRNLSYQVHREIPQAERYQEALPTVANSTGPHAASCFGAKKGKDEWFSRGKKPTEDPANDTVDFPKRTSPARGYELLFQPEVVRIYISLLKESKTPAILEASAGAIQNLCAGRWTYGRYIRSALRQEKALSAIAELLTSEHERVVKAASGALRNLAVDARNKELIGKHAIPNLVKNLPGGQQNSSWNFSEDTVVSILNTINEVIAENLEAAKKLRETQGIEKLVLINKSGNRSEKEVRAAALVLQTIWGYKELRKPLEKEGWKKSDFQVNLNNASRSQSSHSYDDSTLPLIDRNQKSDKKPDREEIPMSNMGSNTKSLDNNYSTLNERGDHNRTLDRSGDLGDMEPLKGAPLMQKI

[2] = molecular target: E-cadherin (mouse (endogenous in 4T1)); test: co-IP; reciprocal: lysate precipitated with an antibody against E-cadherin, p120 isoforms detected by Western blot (Figure S2D,E); cell line not given

binding [1]: binds
Molecule: E-cadherin (mouse (endogenous in 4T1))

binding [2]: binds
B1: P120 catenin isoform p120-1 (protein, UniProt P30999 1-938)
chain: T1 sequence

Results are given in words; binding and its absence hold for the method and conditions named. Binding seen in cells or lysates may run through a third protein. A result given as binding can be weak or reduced; the word gives no strength. One block for each molecule: values may come before it.
